Assay results: PMC5406014
No constants are given. Whether binding was seen depends on the method and setting. In cells and extracts the contact can be indirect. A yes stands for co-enrichment or nearness to the bait. Other partners may have been found.

The chains behind the UniProt entries cited, without tags or fusion partners.
UniProt P54274: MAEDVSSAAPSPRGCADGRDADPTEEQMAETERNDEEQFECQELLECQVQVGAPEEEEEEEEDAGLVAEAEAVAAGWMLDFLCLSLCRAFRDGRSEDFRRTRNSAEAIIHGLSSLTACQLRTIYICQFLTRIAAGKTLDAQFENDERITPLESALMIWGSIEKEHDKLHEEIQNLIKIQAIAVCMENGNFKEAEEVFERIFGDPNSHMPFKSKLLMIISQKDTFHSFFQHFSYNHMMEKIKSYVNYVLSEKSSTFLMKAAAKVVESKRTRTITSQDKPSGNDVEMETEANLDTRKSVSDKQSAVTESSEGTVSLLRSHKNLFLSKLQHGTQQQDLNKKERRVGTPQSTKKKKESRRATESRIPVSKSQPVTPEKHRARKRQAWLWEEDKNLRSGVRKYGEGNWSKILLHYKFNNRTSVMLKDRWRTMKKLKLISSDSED
UniProt P39748: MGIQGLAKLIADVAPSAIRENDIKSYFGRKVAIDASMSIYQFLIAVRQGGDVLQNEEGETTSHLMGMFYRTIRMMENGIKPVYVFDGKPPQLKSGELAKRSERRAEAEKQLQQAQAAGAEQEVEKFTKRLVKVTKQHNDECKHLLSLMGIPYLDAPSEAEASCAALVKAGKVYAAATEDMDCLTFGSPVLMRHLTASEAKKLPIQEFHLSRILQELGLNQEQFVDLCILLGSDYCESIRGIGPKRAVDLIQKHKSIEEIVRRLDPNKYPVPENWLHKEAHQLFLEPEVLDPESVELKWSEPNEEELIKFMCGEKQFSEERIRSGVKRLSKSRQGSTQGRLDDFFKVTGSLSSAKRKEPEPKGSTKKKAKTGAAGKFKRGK
UniProt Q8IY92: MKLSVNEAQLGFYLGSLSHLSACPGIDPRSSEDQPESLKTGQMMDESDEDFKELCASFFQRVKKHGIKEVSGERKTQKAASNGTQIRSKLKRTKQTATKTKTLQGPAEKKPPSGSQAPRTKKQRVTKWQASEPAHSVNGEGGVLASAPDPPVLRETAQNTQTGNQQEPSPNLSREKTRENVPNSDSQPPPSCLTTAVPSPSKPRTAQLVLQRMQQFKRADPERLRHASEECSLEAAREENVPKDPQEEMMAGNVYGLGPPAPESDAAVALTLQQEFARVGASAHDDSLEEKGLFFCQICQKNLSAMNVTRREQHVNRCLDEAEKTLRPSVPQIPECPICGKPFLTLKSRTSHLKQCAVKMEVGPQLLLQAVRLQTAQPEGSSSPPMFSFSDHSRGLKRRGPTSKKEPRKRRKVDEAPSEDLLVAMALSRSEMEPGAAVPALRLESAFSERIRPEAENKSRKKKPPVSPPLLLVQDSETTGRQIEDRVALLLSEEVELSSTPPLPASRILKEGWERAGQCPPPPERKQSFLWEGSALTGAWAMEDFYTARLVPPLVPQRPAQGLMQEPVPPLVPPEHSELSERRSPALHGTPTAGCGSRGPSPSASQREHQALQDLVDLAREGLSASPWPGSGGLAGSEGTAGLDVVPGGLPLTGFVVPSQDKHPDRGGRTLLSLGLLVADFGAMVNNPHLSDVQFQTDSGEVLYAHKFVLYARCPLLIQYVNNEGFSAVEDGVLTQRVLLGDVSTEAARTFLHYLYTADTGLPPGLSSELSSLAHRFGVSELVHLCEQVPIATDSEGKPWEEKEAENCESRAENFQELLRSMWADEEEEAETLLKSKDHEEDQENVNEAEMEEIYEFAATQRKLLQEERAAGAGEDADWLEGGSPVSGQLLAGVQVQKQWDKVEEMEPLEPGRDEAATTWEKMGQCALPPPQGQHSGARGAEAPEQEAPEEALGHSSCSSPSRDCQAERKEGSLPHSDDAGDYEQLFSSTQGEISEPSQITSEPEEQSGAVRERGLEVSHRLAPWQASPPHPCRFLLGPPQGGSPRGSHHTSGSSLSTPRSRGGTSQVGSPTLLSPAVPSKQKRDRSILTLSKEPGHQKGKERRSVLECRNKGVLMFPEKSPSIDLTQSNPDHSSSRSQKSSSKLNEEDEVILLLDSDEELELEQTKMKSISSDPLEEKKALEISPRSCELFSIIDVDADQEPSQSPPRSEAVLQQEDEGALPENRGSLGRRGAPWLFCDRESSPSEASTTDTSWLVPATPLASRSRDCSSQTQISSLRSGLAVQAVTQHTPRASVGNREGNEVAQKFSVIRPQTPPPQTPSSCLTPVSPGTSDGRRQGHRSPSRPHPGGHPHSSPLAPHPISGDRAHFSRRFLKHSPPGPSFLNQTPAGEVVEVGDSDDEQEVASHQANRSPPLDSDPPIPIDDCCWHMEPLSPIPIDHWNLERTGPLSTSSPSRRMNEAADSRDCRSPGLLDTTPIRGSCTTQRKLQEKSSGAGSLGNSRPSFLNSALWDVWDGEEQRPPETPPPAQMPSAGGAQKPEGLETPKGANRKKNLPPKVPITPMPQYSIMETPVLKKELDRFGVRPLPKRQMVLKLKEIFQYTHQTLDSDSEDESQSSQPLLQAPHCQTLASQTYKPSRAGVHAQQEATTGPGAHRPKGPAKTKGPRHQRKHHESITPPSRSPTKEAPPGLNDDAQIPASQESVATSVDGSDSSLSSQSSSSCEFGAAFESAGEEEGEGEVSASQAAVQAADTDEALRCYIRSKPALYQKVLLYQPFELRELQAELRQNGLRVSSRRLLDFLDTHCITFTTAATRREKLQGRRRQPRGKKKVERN
UniProt P29590: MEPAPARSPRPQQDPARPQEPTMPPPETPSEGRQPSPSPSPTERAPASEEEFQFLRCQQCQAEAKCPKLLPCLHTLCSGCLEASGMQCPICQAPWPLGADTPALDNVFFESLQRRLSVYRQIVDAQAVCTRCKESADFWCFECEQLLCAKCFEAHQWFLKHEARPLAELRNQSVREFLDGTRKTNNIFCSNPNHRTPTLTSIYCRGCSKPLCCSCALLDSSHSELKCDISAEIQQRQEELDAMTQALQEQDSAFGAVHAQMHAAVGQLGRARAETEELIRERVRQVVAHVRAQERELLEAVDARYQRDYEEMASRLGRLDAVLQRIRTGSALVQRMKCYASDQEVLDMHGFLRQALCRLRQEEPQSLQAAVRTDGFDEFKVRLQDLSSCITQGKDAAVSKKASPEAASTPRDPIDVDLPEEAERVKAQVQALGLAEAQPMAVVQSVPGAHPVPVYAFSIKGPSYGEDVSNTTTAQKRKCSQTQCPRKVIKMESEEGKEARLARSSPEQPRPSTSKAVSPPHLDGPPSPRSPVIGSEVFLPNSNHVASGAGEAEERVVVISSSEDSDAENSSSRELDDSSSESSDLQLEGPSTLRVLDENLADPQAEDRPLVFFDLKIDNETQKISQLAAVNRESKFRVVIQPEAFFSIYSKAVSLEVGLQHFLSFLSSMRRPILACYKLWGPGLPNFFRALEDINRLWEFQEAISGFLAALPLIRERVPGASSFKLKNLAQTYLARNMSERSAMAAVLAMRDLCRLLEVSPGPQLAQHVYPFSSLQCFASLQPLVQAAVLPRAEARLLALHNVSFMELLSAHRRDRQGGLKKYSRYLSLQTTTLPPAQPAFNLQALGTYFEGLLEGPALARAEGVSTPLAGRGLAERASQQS
UniProt Q96AP0: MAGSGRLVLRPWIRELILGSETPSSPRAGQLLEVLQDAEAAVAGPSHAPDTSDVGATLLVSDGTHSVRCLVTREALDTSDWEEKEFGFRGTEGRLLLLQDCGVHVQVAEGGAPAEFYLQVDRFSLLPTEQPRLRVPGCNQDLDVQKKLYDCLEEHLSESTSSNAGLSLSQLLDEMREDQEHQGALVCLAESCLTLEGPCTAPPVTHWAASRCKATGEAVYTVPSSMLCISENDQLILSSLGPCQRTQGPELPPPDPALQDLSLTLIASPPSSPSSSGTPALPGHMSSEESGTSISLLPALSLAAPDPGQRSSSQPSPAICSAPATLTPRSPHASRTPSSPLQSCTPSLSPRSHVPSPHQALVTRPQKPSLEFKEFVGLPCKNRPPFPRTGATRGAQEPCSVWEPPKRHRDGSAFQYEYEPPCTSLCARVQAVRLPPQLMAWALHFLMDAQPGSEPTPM
UniProt P46100: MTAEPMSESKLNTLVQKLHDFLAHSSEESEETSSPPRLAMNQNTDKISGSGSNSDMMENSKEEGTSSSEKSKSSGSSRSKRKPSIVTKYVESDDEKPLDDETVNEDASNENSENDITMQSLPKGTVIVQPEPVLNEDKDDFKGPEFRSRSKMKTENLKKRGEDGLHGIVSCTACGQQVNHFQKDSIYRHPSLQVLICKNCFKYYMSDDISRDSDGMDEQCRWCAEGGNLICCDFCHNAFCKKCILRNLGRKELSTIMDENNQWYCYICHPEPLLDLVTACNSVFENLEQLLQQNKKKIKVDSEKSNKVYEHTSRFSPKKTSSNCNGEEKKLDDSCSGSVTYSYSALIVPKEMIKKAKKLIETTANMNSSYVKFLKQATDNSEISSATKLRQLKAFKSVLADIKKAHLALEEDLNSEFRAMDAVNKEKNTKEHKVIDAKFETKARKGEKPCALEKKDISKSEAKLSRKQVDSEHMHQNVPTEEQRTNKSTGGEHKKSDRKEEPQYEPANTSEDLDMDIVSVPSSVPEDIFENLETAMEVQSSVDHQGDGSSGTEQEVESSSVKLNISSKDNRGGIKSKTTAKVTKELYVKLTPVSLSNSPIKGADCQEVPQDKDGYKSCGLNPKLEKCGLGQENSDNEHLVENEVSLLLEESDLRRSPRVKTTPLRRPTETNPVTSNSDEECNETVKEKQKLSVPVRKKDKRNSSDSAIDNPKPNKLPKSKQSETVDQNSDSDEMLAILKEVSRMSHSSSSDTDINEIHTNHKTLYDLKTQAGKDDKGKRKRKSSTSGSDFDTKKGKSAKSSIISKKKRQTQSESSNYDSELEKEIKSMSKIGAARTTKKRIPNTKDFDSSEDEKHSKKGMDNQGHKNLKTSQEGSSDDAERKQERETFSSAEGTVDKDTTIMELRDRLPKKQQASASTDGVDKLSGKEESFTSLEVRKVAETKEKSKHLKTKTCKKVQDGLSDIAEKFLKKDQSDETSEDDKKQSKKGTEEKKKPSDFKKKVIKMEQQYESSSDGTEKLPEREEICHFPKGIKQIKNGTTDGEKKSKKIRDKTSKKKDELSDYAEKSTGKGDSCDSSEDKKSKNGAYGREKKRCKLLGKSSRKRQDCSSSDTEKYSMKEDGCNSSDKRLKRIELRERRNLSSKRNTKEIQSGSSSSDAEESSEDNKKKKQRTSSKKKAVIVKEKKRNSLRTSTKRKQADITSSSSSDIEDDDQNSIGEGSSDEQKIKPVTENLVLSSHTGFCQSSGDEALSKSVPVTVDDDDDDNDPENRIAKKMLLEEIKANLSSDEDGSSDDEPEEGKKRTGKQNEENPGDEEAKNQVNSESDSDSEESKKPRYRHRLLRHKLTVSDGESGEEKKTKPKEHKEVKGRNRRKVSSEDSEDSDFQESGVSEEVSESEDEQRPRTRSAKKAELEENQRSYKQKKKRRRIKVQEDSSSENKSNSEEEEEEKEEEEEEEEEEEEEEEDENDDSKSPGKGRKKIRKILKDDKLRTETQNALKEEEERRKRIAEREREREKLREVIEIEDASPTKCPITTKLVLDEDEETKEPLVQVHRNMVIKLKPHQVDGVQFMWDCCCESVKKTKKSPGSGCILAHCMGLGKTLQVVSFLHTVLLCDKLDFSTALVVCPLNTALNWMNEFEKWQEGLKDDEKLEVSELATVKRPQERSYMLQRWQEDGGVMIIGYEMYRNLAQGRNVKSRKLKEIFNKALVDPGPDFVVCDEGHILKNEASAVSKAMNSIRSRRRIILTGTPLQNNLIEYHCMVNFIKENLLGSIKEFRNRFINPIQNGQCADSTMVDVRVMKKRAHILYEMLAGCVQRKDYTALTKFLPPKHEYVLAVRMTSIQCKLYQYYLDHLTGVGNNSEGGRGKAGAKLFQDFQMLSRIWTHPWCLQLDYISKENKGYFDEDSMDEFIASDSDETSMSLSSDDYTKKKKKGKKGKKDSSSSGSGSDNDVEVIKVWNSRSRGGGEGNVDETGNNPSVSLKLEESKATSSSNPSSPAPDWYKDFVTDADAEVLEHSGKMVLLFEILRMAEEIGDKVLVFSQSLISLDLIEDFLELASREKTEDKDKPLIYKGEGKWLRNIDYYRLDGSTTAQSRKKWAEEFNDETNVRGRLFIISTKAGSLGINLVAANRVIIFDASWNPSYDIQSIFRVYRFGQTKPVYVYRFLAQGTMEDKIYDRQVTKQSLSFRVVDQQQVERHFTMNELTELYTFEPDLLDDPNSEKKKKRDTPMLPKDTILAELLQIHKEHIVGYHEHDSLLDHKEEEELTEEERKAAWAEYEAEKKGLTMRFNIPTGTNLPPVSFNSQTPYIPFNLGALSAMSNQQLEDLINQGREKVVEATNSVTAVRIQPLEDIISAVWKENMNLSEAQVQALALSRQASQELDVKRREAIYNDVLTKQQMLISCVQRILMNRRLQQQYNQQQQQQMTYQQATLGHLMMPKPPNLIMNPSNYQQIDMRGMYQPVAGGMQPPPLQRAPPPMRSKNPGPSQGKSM

What was measured:
[1] = molecular target: myc-BirA-TRF1 (UniProt P54274); assay: proximity labelling; BioID in ALT+ U2OS cells stably expressing myc-BirA-TRF1; 50 µM biotin for 24 hr; streptavidin pull-down from ~6 x 10^7 cells, LC-MS in triplicate; myc-BirA cells as negative reference
[2] = molecular target: myc-BirA-TRF1 (UniProt P54274); assay: proximity labelling; BioID in TEL+ HeLa LT cells stably expressing myc-BirA-TRF1; 50 µM biotin for 24 hr; streptavidin pull-down from ~6 x 10^7 cells, LC-MS in triplicate; myc-BirA cells as negative reference

Molecule: FEN1 (from UniProt P39748 1-380)
- binding [1]: binds
- binding [2]: binds

Molecule: SLX4 (from UniProt Q8IY92 1-1834)
- binding [1]: binds

Molecule: PML (from UniProt P29590 1-882)
- binding [1]: binds

Molecule: PARP1 (from UniProt P09874 1-1014)
- binding [1]: binds
- binding [2]: binds

Molecule: TPP1 (from UniProt Q96AP0 1-458)
- binding [1]: binds
- binding [2]: binds

Molecule: SMCHD1 (from UniProt A6NHR9 1-2005)
- binding [2]: binds

Molecule: BLM (from UniProt P54132 1-1417)
- binding [1]: binds
- binding [2]: binds

Molecule: ATRX (from UniProt P46100 1-2492)
- binding [2]: binds

Molecule: MSH6 (from UniProt P52701 1-1360)
- binding [1]: binds

B1: TIN2 (protein, UniProt Q9BSI4 1-451)
chain: MATPLVAGPAALRFAAAASWQVVRGRCVEHFPRVLEFLRSLRAVAPGLVRYRHHERLCMGLKAKVVVELILQGRPWAQVLKALNHHFPESGPIVRDPKATKQDLRKILEAQETFYQQVKQLSEAPVDLASKLQELEQEYGEPFLAAMEKLLFEYLCQLEKALPTPQAQQLQDVLSWMQPGVSITSSLAWRQYGVDMGWLLPECSVTDSVNLAEPMEQNPPQQQRLALHNPLPKAKPGTHLPQGPSSRTHPEPLAGRHFNLAPLGRRRVQSQWASTRGGHKERPTVMLFPFRNLGSPTQVISKPESKEEHAIYTADLAMGTRAASTGKSKSPCQTLGGRALKENPVDLPATEQKENCLDCYMDPLRLSLLPPRARKPVCPPSLCSSVITIGDLVLDSDEEENGQGEGKESLENYQKTKFDTLIPTLCEYLPPSGHGAIPVSSCDCRDSSRPL
- binding [1]: binds
- binding [2]: binds

B2: POT1 (protein, UniProt Q9NUX5 1-634)
chain: MSLVPATNYIYTPLNQLKGGTIVNVYGVVKFFKPPYLSKGTDYCSVVTIVDQTNVKLTCLLFSGNYEALPIIYKNGDIVRFHRLKIQVYKKETQGITSSGFASLTFEGTLGAPIIPRTSSKYFNFTTEDHKMVEALRVWASTHMSPSWTLLKLCDVQPMQYFDLTCQLLGKAEVDGASFLLKVWDGTRTPFPSWRVLIQDLVLEGDLSHIHRLQNLTIDILVYDNHVHVARSLKVGSFLRIYSLHTKLQSMNSENQTMLSLEFHLHGGTSYGRGIRVLPESNSDVDQLKKDLESANLTANQHSDVICQSEPDDSFPSSGSVSLYEVERCQQLSATILTDHQYLERTPLCAILKQKAPQQYRIRAKLRSYKPRRLFQSVKLHCPKCHLLQEVPHEGDLDIIFQDGATKTPDVKLQNTSLYDSKIWTTKNQKGRKVAVHFVKNNGILPLSNECLLLIEGGTLSEICKLSNKFNSVIPVRSGHEDLELLDLSAPFLIQGTIHHYGCKQCSSLRSIQNLNSLVDKTSWIPSSVAEALGIVPLQYVFVMTFTLDDGTGVLEAYLMDSDKFFQIPASEVLMDDDLQKSVDMIMDMFCPPGIKIDAYPWLECFIKSYNVTNGTDNQICYQIFDTTVAEDVI
- binding [1]: binds
- binding [2]: binds

B3: ERCC1 (protein, UniProt P07992 1-297)
chain: MDPGKDKEGVPQPSGPPARKKFVIPLDEDEVPPGVAKPLFRSTQSLPTVDTSAQAAPQTYAEYAISQPLEGAGATCPTGSEPLAGETPNQALKPGAKSNSIIVSPRQRGNPVLKFVRNVPWEFGDVIPDYVLGQSTCALFLSLRYHNLHPDYIHGRLQSLGKNFALRVLLVQVDVKDPQQALKELAKMCILADCTLILAWSPEEAGRYLETYKAYEQKPADLLMEKLEQDFVSRVTECLTTVKSVNKTDSQTLLTTFGSLEQLIAASREDLALCPGLGPQKARRLFDVLHEPFLKVP
- binding [1]: binds

B4: NR2C1 (protein, UniProt P13056 1-603)
chain: MATIEEIAHQIIEQQMGEIVTEQQTGQKIQIVTALDHNTQGKQFILTNHDGSTPSKVILARQDSTPGKVFLTTPDAAGVNQLFFTTPDLSAQHLQLLTDNSPDQGPNKVFDLCVVCGDKASGRHYGAVTCEGCKGFFKRSIRKNLVYSCRGSKDCIINKHHRNRCQYCRLQRCIAFGMKQDSVQCERKPIEVSREKSSNCAASTEKIYIRKDLRSPLTATPTFVTDSESTRSTGLLDSGMFMNIHPSGVKTESAVLMTSDKAESCQGDLSTLANVVTSLANLGKTKDLSQNSNEMSMIESLSNDDTSLCEFQEMQTNGDVSRAFDTLAKALNPGESTACQSSVAGMEGSVHLITGDSSINYTEKEGPLLSDSHVAFRLTMPSPMPEYLNVHYIGESASRLLFLSMHWALSIPSFQALGQENSISLVKAYWNELFTLGLAQCWQVMNVATILATFVNCLHNSLQQDKMSTERRKLLMEHIFKLQEFCNSMVKLCIDGYEYAYLKAIVLFSPDHPSLENMEQIEKFQEKAYVEFQDYITKTYPDDTYRLSRLLLRLPALRLMNATITEELFFKGLIGNIRIDSVIPHILKMEPADYNSQIIGHSI
- binding [1]: binds

B5: NR2C2 (protein, UniProt P49116 1-596)
chain: MTSPSPRIQIISTDSAVASPQRIQIVTDQQTGQKIQIVTAVDASGSPKQQFILTSPDGAGTGKVILASPETSSAKQLIFTTSDNLVPGRIQIVTDSASVERLLGKTDVQRPQVVEYCVVCGDKASGRHYGAVSCEGCKGFFKRSVRKNLTYSCRSNQDCIINKHHRNRCQFCRLKKCLEMGMKMESVQSERKPFDVQREKPSNCAASTEKIYIRKDLRSPLIATPTFVADKDGARQTGLLDPGMLVNIQQPLIREDGTVLLATDSKAETSQGALGTLANVVTSLANLSESLNNGDTSEIQPEDQSASEITRAFDTLAKALNTTDSSSSPSLADGIDTSGGGSIHVISRDQSTPIIEVEGPLLSDTHVTFKLTMPSPMPEYLNVHYICESASRLLFLSMHWARSIPAFQALGQDCNTSLVRACWNELFTLGLAQCAQVMSLSTILAAIVNHLQNSIQEDKLSGDRIKQVMEHIWKLQEFCNSMAKLDIDGYEYAYLKAIVLFSPDHPGLTSTSQIEKFQEKAQMELQDYVQKTYSEDTYRLARILVRLPALRLMSSNITEELFFTGLIGNVSIDSIIPYILKMETAEYNGQITGASL
- binding [1]: binds

B6: ZNF827 (protein, UniProt Q17R98 1-1081)
chain: MPRRKQEQPKRLPSHVSRQEEAEGELSEGEHWYGNSSETPSEASYGEVQENYKLSLEDRIQEQSTSPDTSLGSTTPSSHTLELVALDSEVLRDSLQCQDHLSPGVSSLCDDDPGSNKPLSSNLRRLLEAGSLKLDAAATANGRVESPVNVGSNLSFSPPSHHAQQLSVLARKLAEKQEQNDQYTPSNRFIWNQGKWLPNSTTTCSLSPDSAILKLKAAANAVLQDKSLTRTEETMRFESFSSPFSSQSASSTLAALSKKVSERSLTPGQEHPPPASSFLSLASMTSSAALLKEVAARAAGSLLAEKSSLLPEDPLPPPPSEKKPEKVTPPPPPPPPPPPPPPPQSLELLLLPVPKGRVSKPSNSASEEESGKPFQCPICGLVIKRKSYWKRHMVIHTGLKSHQCPLCPFRCARKDNLKSHMKVHQHQDRGETFQCQLCPFTSSRHFSLKLHMRCHQHFLRTEAKVKEEIPDPDVKGSPHLSDSACLGQQREGGGTELVGTMMTSNTPERTSQGGAGVSPLLVKEEPKEDNGLPTSFTLNAADRPANHTKLKDPSEYVANSASALFSQDISVKMASDFLMKLSAANQKEPMNLNFKVKEEPKEGESLSTTLPRSSYVFSPESEVSAPGVSEDALKPQEGKGSVLRRDVSVKAASELLMKLSAESYKETQMVKIKEEPMEVDIQDSHVSISPSRNVGYSTLIGREKTEPLQKMPEGRVPPERNLFSQDISVKMASELLFQLSEKVSKEHNHTKENTIRTTTSPFFSEDTFRQSPFTSNSKELLPSDSVLHGRISAPETEKIVLEAGNGLPSWKFNDQLFPCDVCGKVFGRQQTLSRHLSLHTEERKYKCHLCPYAAKCRANLNQHLTVHSVKLVSTDTEDIVSAVTSEGSDGKKHPYYYSCHVCGFETELNVQFVSHMSLHVDKEQWMFSICCTACDFVTMEEAEIKTHIGTKHTGEDRKTPSESNSPSSSSLSALSDSANSKDDSDGSQKNKGGNNLLVISVMPGSQPSLNSEEKPEKGFECVFCNFVCKTKNMFERHLQIHLITRMFECDVCHKFMKTPEQLLEHKKCHTVPTGGLNSGQW
- binding [1]: binds

B7: LRIF1 (protein, UniProt Q5T3J3 1-769)
chain: MSNNLRRVFLKPAEENSGNASRCVSGCMYQVVQTIGSDGKNLLQLLPIPKSSGNLIPLVQSSVMSDALKGNTGKPVQVTFQTQISSSSTSASVQLPIFQPASSSNYFLTRTVDTSEKGRVTSVGTGNFSSSVSKVQSHGVKIDGLTMQTFAVPPSTQKDSSFIVVNTQSLPVTVKSPVLPSGHHLQIPAHAEVKSVPASSLPPSVQQKILATATTSTSGMVEASQMPTVIYVSPVNTVKNVVTKNFQNIYPKPVTEIAKPVILNTTQIPKNVATETQLKGGQHSQAAPVKWIFQDNLQPFTPSLVPVKSSNNVASKILKTFVDRKNLGDNTINMPPLSTIDPSGTRSKNMPIKDNALVMFNGKVYLLAKKGTDVLPSQIDQQNSVSPDTPVRKDTLQTVSSSPVTEISREVVNIVLAKSKSSQMETKSLSNTQLASMANLRAEKNKVEKPSPSTTNPHMNQSSNYLKQSKTLFTNPIFPVGFSTGHNAPRKVTAVIYARKGSVLQSIEKISSSVDATTVTSQQCVFRDQEPKIHNEMASTSDKGAQGRNDKKDSQGRSNKALHLKSDAEFKKIFGLTKDLRVCLTRIPDHLTSGEGFDSFSSLVKSGTYKETEFMVKEGERKQQNFDKKRKAKTNKKMDHIKKRKTENAYNAIINGEANVTGSQLLSSILPTSDVSQHNILTSHSKTRQEKRTEMEYYTHEKQEKGTLNSNAAYEQSHFFNKNYTEDIFPVTPPELEETIRDEKIRRLKQVLREKEAALEEMRKKMHQK
- binding [2]: binds

B8: PMS2 (protein, UniProt P54278 1-862)
chain: MERAESSSTEPAKAIKPIDRKSVHQICSGQVVLSLSTAVKELVENSLDAGATNIDLKLKDYGVDLIEVSDNGCGVEEENFEGLTLKHHTSKIQEFADLTQVETFGFRGEALSSLCALSDVTISTCHASAKVGTRLMFDHNGKIIQKTPYPRPRGTTVSVQQLFSTLPVRHKEFQRNIKKEYAKMVQVLHAYCIISAGIRVSCTNQLGQGKRQPVVCTGGSPSIKENIGSVFGQKQLQSLIPFVQLPPSDSVCEEYGLSCSDALHNLFYISGFISQCTHGVGRSSTDRQFFFINRRPCDPAKVCRLVNEVYHMYNRHQYPFVVLNISVDSECVDINVTPDKRQILLQEEKLLLAVLKTSLIGMFDSDVNKLNVSQQPLLDVEGNLIKMHAADLEKPMVEKQDQSPSLRTGEEKKDVSISRLREAFSLRHTTENKPHSPKTPEPRRSPLGQKRGMLSSSTSGAISDKGVLRPQKEAVSSSHGPSDPTDRAEVEKDSGHGSTSVDSEGFSIPDTGSHCSSEYAASSPGDRGSQEHVDSQEKAPKTDDSFSDVDCHSNQEDTGCKFRVLPQPTNLATPNTKRFKKEEILSSSDICQKLVNTQDMSASQVDVAVKINKKVVPLDFSMSSLAKRIKQLHHEAQQSEGEQNYRKFRAKICPGENQAAEDELRKEISKTMFAEMEIIGQFNLGFIITKLNEDIFIVDQHATDEKYNFEMLQQHTVLQGQRLIAPQTLNLTAVNEAVLIENLEIFRKNGFDFVIDENAPVTERAKLISLPTSKNWTFGPQDVDELIFMLSDSPGVMCRPSRVKQMFASRACRKSVMIGTALNTSEMKKLITHMGEMDHPWNCPHGRPTMRHIANLGVISQN
- binding [1]: binds
